Paper PMC7819943, “Rice protein-binding microarrays: a tool to detect cis-acting elements near promoter regions in rice”
This is one part of the list.

The chains behind the UniProt entries cited, without tags or fusion partners.
UniProt Q0JBA9, entry or part of it: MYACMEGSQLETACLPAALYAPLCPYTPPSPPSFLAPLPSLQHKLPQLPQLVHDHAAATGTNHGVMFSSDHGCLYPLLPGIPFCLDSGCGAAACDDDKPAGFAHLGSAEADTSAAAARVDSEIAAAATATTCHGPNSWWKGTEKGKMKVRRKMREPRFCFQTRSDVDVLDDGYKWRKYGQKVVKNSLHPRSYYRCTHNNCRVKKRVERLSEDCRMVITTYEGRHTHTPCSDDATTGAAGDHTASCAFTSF

The sequences below were run against OsWRKY34 (Oryza sativa, UniProt Q0JBA9 1-250) (assay: protein-binding microarray (RPBM); PBS, 2% BSA, 51.3 ng/ul salmon testes DNA, 50 uM zinc acetate, 200 nM TF, 25 C, 1 h; high values mean tight binding). Conditions: protein: recombinant; tags: N-terminal polyhistidine and DsRed monomer fusion (pET32a); label: CyDye5-dUTP incorporated in the synthesized complementary strand; 3' TTTTT single-stranded linker to array surface; dsDNA, one strand shown.
Outline: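 Transcription factors were each fused at the N-terminus to a polyhistidine tag plus DsRed and expressed in E. coli BL21-CodonPlus before Ni–NTA purification. Binding to a double-stranded custom Agilent array was carried out with 200 nM protein at 25 °C for 1 h in PBS, 2% BSA, salmon testes DNA and 50 µM zinc acetate. The binding signal is per-feature fluorescence intensity, in arbitrary units, on an Axon 4000B scanner.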

| Sequence | binding signal |
| --- | --- |
| GTCACTGGCATGTGGGTTCCACCTATTCCGGGCCCACATGCGGAGTCACCTAGTGCAG | 8970 fluorescence intensity (a.u.) |
| CTTGGTAATCGTCTAGCTAATTTTGGCAAACTATCCGCCACGGAGTCACCTAGTGCAG | 8490 fluorescence intensity (a.u.) |
| TGTATGTGTCTTAAACTGTTGTTGAATTCTGTGCGTGTAACGGAGTCACCTAGTGCAG | 8300 fluorescence intensity (a.u.) |
| GGGGAGGAATTATGGACTATTTGGATGGGCTTTTTTTACTCGGAGTCACCTAGTGCAG | 8030 fluorescence intensity (a.u.) |
| TTCTGTCAAACTAAGATAAGTGGTGGGCGGTGGAGTTATTCGGAGTCACCTAGTGCAG | 11500 fluorescence intensity (a.u.) |
| CAAGTAATCCAGTGCCTTCATGACCTGCAAATTCTATGCCCGGAGTCACCTAGTGCAG | 9670 fluorescence intensity (a.u.) |
| TTTCCTTCGCGCCAATCCCACCGCGCGCGCCCACAAATACCGGAGTCACCTAGTGCAG | 14200 fluorescence intensity (a.u.) |
| GTGGAGAGTATCTTCTTCTTCTTCTTCTTCTTCTTCTTCTCGGAGTCACCTAGTGCAG | 8430 fluorescence intensity (a.u.) |
| AGTCGGGCATTACGGCAAGGTATCTCTCTCCCGCTGACAACGGAGTCACCTAGTGCAG | 8960 fluorescence intensity (a.u.) |
| ACCGATTTCCCTCCGCCGCAACCGGAGCTCACCTCACCTCCGGAGTCACCTAGTGCAG | 8840 fluorescence intensity (a.u.) |
| TTCTCCTCTTTAATTCTCTGCGCTACAAATATGTATACACCGGAGTCACCTAGTGCAG | 10100 fluorescence intensity (a.u.) |
| TCGAACTATGTTTCTGGAGTTGTTTGTGTTAAAGTCCCAACGGAGTCACCTAGTGCAG | 8860 fluorescence intensity (a.u.) |
| CTCCTATGGGCGGCGGCGGCGGCGGGCGGCGGGCCTATCCCGGAGTCACCTAGTGCAG | 10600 fluorescence intensity (a.u.) |
| TCCGTTTGCCATTACACCACACAGGCACACATGCCACACACGGAGTCACCTAGTGCAG | 9160 fluorescence intensity (a.u.) |
| ATTTCCCGTCCTTGTCCTAAATGAGTACTAATTTTGATTTCGGAGTCACCTAGTGCAG | 10400 fluorescence intensity (a.u.) |
| GCTTGCACCGTCTACTTATCTCAATTCTCAAGCTCTCAGCCGGAGTCACCTAGTGCAG | 10100 fluorescence intensity (a.u.) |
| AATGGTAGAGCAAGGATAGGTTTGTGTGTGTGTGTGTGACCGGAGTCACCTAGTGCAG | 11300 fluorescence intensity (a.u.) |
| ATTCCCATATATATTGCTTTAGTTTTCCTTAATTTTCATCCGGAGTCACCTAGTGCAG | 8830 fluorescence intensity (a.u.) |
| CGCGCCGCGGCGCTCGTCTCGTCTCCCCGGGTTTTTTAAACGGAGTCACCTAGTGCAG | 10800 fluorescence intensity (a.u.) |
| TTTGTTTGTTTTGGGCCTCTACATCTGCACAGGCTCTCTTCGGAGTCACCTAGTGCAG | 10100 fluorescence intensity (a.u.) |
| AGTAACTTTCGTCATTGTCACTATCACCTTCTCAAACGCCCGGAGTCACCTAGTGCAG | 9850 fluorescence intensity (a.u.) |

| Sequence | binding signal |
| --- | --- |
| TAGGGTTTGGACTTCGTTGCAACCGGCGCTACTTCGCGACCGGAGTCACCTAGTGCAG | 9590 fluorescence intensity (a.u.) |
| TGCTACACACTTTTAAGTATACCCATCTATCCCCTGCTGACGGAGTCACCTAGTGCAG | 8620 fluorescence intensity (a.u.) |
| TAGGTAGTTGGGTGGGTTTAGGATTCGTATGTGGATAACGCGGAGTCACCTAGTGCAG | 11900 fluorescence intensity (a.u.) |
| GGAGTGACTTGGACAATCTGTTTACGTCATCTTATTATACCGGAGTCACCTAGTGCAG | 9030 fluorescence intensity (a.u.) |
| GCCTCTGCCCATCGCATCGATCCCCGCCGTCCCTCCACCCCGGAGTCACCTAGTGCAG | 11000 fluorescence intensity (a.u.) |
| GAAAATTTTCCCTCCACACCACTTCAAAAATTTCATCTCTCGGAGTCACCTAGTGCAG | 8800 fluorescence intensity (a.u.) |
| TGCCTGCCTCCACCTCACCTGTCTGCCGCGCGCCAAATATCGGAGTCACCTAGTGCAG | 9280 fluorescence intensity (a.u.) |
| ATTCACCAAACCCCTGAATTACGAGGTCTTGATTGCACCACGGAGTCACCTAGTGCAG | 8220 fluorescence intensity (a.u.) |
| AGCAGTTGTATTGTTGTGAAATTTAATTTGCTCTTTGACCCGGAGTCACCTAGTGCAG | 8200 fluorescence intensity (a.u.) |
| GTCGAAATTTTGGTAATATTGCCAACTTATCAAAATTTTGCGGAGTCACCTAGTGCAG | 8490 fluorescence intensity (a.u.) |
| AGTTGTAAGATAGGTTTGCGTTGGTAGAGGGTAATCCTGACGGAGTCACCTAGTGCAG | 9800 fluorescence intensity (a.u.) |
| ATCACACCCTAAATTGACTGTATTTGTGCTGAATTTTACACGGAGTCACCTAGTGCAG | 8630 fluorescence intensity (a.u.) |
| CCTGAGTCCCAGCCAGTGTGAGTTACTAGTATCTCTTTTCCGGAGTCACCTAGTGCAG | 8290 fluorescence intensity (a.u.) |
| TCCTAGACCTAGTACATTTTCACCAACTCGCCATATTCTACGGAGTCACCTAGTGCAG | 10000 fluorescence intensity (a.u.) |
| GGTGGTGGTGGTGGTGCCGGAGCTGGGGAGAAGAGGAGGACGGAGTCACCTAGTGCAG | 9350 fluorescence intensity (a.u.) |
| GTTCTCAGTTGCTGTTTCTTCCAATGAATATTATGTCTTTCGGAGTCACCTAGTGCAG | 9530 fluorescence intensity (a.u.) |
| ACTTCTGCTAAGCTCCATCTTGCTCGCCACGCGCGTCCACCGGAGTCACCTAGTGCAG | 8860 fluorescence intensity (a.u.) |
| CTCCCTTCGTTTCGAAATGTTTGACGCCGTTGACTTTTTACGGAGTCACCTAGTGCAG | 22800 fluorescence intensity (a.u.) |
| CTTTGTACGATCTGTGTACCAAATCTTTCGTTCTTTTCTTCGGAGTCACCTAGTGCAG | 9260 fluorescence intensity (a.u.) |
| CCTCTCTTTTCTCTTCTCTTCTCGTCTTTCCCATCTCGCGCGGAGTCACCTAGTGCAG | 8850 fluorescence intensity (a.u.) |
| ACTGCTTCCGCTTTTCTTAAGTTTTTAAATTGGCCTATTCCGGAGTCACCTAGTGCAG | 10000 fluorescence intensity (a.u.) |

Given as tab-separated lines: entries from further up.
Sequence	binding signal
ATTCCCATATATATTGCTTTAGTTTTCCTTAATTTTCATCCGGAGTCACCTAGTGCAG	8830 fluorescence intensity (a.u.)
CGCGCCGCGGCGCTCGTCTCGTCTCCCCGGGTTTTTTAAACGGAGTCACCTAGTGCAG	10800 fluorescence intensity (a.u.)
